In PMC10605449 (Biosensors, 2023):
These are yes or no findings as the source states them, for the method shown. Some results given as binding are weak or reduced against the parent protein; the word gives no strength. Where a sequence is shown, tags or fusion partners need not be part of it.

Amino acid sequences for entries named in this document (tags omitted). A change or cut given only in a name is not applied to a line headed by its entry.
UniProt Q9Y265: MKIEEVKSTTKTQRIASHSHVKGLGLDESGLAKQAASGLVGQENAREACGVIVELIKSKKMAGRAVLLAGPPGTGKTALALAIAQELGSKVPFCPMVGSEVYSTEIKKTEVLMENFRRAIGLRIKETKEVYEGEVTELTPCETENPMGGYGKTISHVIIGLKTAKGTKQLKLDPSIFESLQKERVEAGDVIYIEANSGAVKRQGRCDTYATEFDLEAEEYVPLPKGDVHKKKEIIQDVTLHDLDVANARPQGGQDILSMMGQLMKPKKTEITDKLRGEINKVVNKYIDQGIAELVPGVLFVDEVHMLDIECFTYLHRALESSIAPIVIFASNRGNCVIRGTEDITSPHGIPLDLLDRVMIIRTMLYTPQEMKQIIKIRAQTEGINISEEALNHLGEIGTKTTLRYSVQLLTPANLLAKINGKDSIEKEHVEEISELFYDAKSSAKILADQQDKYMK

What was measured:
[1] = molecular target: T1, Cellular biotinylated H/ACA ribonucleoprotein complex subunit Dyskerin pseudouridine synthase 1, His6-DKC1(1-514)-AviTag (UniProt O60832); assay: SPR; data not shown; as a5, in the presence of saturating concentrations of the non-hydrolysable ATPγS; only the binder purified
T1 sequence (chain, biotin on the AviTag (BirA, in the cells)): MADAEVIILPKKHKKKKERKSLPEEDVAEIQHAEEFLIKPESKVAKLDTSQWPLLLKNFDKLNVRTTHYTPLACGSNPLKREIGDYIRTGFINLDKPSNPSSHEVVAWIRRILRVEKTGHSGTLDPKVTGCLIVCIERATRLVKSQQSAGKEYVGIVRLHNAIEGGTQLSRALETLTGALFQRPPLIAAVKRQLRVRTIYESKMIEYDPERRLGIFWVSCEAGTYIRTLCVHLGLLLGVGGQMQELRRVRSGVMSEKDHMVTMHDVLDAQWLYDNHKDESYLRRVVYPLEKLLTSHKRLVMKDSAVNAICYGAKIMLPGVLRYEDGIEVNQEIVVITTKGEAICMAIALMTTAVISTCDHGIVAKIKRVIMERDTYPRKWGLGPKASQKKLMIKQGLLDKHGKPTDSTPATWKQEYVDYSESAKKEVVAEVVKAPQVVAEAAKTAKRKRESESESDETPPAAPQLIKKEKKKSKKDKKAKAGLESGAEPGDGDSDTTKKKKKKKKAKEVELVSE

[2] = molecular target: T1, Cellular biotinylated H/ACA ribonucleoprotein complex subunit Dyskerin pseudouridine synthase 1, His6-DKC1(1-514)-AviTag; assay: SPR; data not shown; as a5, injection of the ATP hydrolysis mutant complex over DKC1(1-514) captured from lysate; only the binder purified

Row | binding [1] | binding [2] | Substance
1 | binds |  | His6-RuvBL1(1-456)/RuvBL2(1-463) (from UniProt Q9Y265 1-456; Q9Y230 1-463) (complex)
2 |  | binds | His6-RuvBL1_D302N/RuvBL2_D299N (from UniProt Q9Y265 1-456; Q9Y230 1-463) (complex)
